Test results published in US20210169914.
Substitutions are numbered along the chain they refer to. For some of these results: No signal at the amounts used counts as a negative. For some of these results: Protein sequences can lack the tags named with them. For some of these results: A weaker result is weaker than the reference pair of the same experiment. For some of these results: For at least one entry, the source does not settle the construct or the ends of the probe.

How the values were obtained:
FUS (Homo sapiens) = molecular target: T1, FUS (Homo sapiens) (UniProt P35637); test: inhibition of the protein; conditions: purified recombinant protein
T1 sequence: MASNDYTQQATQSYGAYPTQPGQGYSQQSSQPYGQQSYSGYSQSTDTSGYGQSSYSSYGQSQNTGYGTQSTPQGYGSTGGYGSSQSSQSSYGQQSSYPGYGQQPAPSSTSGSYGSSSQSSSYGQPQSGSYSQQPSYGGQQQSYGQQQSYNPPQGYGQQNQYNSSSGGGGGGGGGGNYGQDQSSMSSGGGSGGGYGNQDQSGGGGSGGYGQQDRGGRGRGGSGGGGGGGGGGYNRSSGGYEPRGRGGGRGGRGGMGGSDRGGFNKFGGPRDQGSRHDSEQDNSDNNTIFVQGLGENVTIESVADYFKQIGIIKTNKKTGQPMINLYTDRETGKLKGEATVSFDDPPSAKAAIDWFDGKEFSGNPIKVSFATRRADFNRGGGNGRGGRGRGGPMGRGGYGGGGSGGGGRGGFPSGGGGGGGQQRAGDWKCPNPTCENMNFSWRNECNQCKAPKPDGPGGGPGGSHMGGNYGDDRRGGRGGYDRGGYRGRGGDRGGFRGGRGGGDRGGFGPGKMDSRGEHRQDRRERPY

[1] = molecular target: T2, FUS 4FL F305L,F341L,F359L,F368L (Homo sapiens) (UniProt P35637); test: inhibition of the protein; conditions: purified recombinant protein
T2 sequence: T1 sequence with F305L, F341L, F359L, F368L

[2] = molecular target: T3, optoFUS (Cry2-mCh-FUS) (Homo sapiens) (UniProt P35637); test: activity in cells; conditions: protein in cells, protein details: N-terminal Cry2-mCherry fusion, HEK293 cells
T3 sequence: T1 sequence

[3] = molecular target: optoTDP43 (Cry2olig-TDP-43-mCherry) (Homo sapiens) (UniProt Q13148); test: activity in cells; conditions: protein in cells, protein details: N-terminal Cry2olig, C-terminal mCherry
[4] = molecular target: TDP-43 RRMs (Homo sapiens) (UniProt Q13148); test: binding assay; conditions: [none]; CITED Ayala 2011, Bhardwaj 2013; SEQ 13 is the 2'OMe form; letters built from the parent sequence and the stated change
[5] = intermediate aggregation inhibitor, 5 uM FUS, 20 uM RNA
[6] = strong aggregation inhibitor, 5 uM FUS, 20 uM RNA

GUGGUGGCUAUGGAGGUGGCUAUG [RNA15/2(A-U)]
functional effect (FUS (Homo sapiens); A-U mutation significantly weakened inhibition vs RNA22, variant of RNA22 (RNA15/2)): less active

GAAAAUUAAUGUGUGUGUGUGGAAAAUU [RNA1]
functional effect (FUS (Homo sapiens); [5]): active

UUGUAUUUUGAGCUAGUUUGGUGAU [RNA2]
functional effect (FUS (Homo sapiens); [5]): active

AAACGGUCUGAUAAACGGUCUGAU [RNA14]
functional effect (FUS (Homo sapiens); [5]): active

CGCUGGCAUCCACGCUGGCAUCCA [RNA28]
functional effect (FUS (Homo sapiens); [5]): active

CUAGGAUGGAGGUGGGGAAUGGUAC [RNA8 / RNAS1]
functional effect [1]: less active
functional effect (FUS (Homo sapiens); strong inhibitor and disaggregator in turbidity assay, 5 uM FUS, 20 uM RNA, pellet reduced about 60% at 90 min): active
functional effect ([2]; dose-dependent inhibition and clearance of optoFUS inclusions, 0.5-2.5 uM): active

ACCAUGAUCACGAAGGUGGUUUUCCCAGGGCGAGGCUUA [RNA31]
functional effect [1]: not active
functional effect (FUS (Homo sapiens); [6]): active

UAUUGAUCCGGUUAUUGAUCCGGU [RNA30]
functional effect (FUS (Homo sapiens); [5]): active

GAGAGAGCGCGUGCAGAGACUUGGUGGUGCAUAA [2'OMe Clip_34nt]
functional effect ([3]; 2'-OMe [1-34 (2'-OMe)], dose-dependent reduction of optoTDP43 assemblies in HEK293 and neurons, 200-1000 nM, letters built from the parent sequence and the stated change, variant of Clip_34nt (unmodified)): active

GAGGUGGCUAUGGAGGUGGCUAUG [RNA22 (RNA15/2)]
functional effect (FUS (Homo sapiens); shortened RNA15 is intermediate inhibitor, no disaggregation activity, variant of RNA15): less active

CUAGGAUGGAGGUGGGGAAUGGUAC [RNA2'S1]
functional effect ([2]; 2'-OMe at every nucleotide [1-25 (2'-OMe)], inhibits and clears optoFUS inclusions, letters built from the parent sequence and the stated change, variant of RNA8 / RNAS1): active

UGUGUGUGUGUGUGUGUGUGUGUG [UG12]
functional effect ([3]; 50 nM prevents inclusions): active

AACCUUCGUAAACCUUCGUAAACCUUCGUAAACCUUCGUA [RNA27]
functional effect (FUS (Homo sapiens); [5]): active

GGUGAGCACAGAGGUGAGCACAGA [RNA10]
functional effect (FUS (Homo sapiens); [5]): active

GAUGGAUUCCAGGAUGGAUUCCAG [RNA13]
functional effect (FUS (Homo sapiens); [5]): active

CCAAUCUUCCUUCCAAUCUUCCUU [RNA11]
functional effect (FUS (Homo sapiens); [5]): active

CGCGCGCGCGCGCGCGTGTGTGTGTGTGTGTGTGTGTGTGCGCGCGCGCGCGCGCG [SL_TG24]
functional effect ([3]; 2'-OMe [1-56 (2'-OMe)], complete rescue of viability at 50 and 100 nM, single-stranded DNA, letters built from the parent sequence and the stated change): active

UCAGAGACAUCAUCAGAGACAUCAUCAGAGACAUCAUCAGAGACAUCA [RNA9^2]
functional effect (FUS (Homo sapiens); increased inhibition and gained disaggregation vs RNA9, variant of RNA9): active

UGUAUUUUGAGCUAGUUUGCUGAU [control RNA]
functional effect ([2]; described as non-binding control, no significant effect): not active

GACUGAAAAAGGUGGGUUUCUUUU [RNA7]
functional effect (FUS (Homo sapiens); [6]): active

AAAAAAAAAAAAAAAAAAAAAAAAAGUGAAGGCAGAGAGGGGUUAAGG [RNA26]
functional effect (FUS (Homo sapiens); [6]): active

AAAGCGGCGAUGAAAGCGGCGAUG [RNA29]
functional effect (FUS (Homo sapiens); [5]): active

CUCCGGAUGUGCUGACCCCUGCGAUUUCCCCAAAUGUGGGAAA [RNA32]
functional effect ([1]; modest disaggregation of 4FL, perhaps residual binding): less active
functional effect (FUS (Homo sapiens); [6]): active

GAGAGAGCGCGUGCAGAGACUUGGUGGUGCAUAA [Clip_34nt (unmodified)]
Kd [4]: 112 nM

AUUGAGGAGCAGCAGAGAAGUUGGAAAAAAAAAAAAAAAAAAAAAAAA [RNA25]
functional effect (FUS (Homo sapiens); [6]): active

GAGGUGGCUAUGGAGGUGGCUAUGGAGGUGGCUAUGGAGGUGGCUAUG [RNA15]
functional effect [1]: less active
functional effect (FUS (Homo sapiens); strong inhibitor and disaggregator in turbidity assay, pellet reduced about 40% at 90 min): active

AUGUCGCAGAAUGUCGCAGAAUGUCGCAGAAUGUCGCAGA [RNA17]
functional effect (FUS (Homo sapiens); [5]): active

AUUGAGGAGCAGCAGAGAAGUUGGAGUGAAGGCAGAGAGGGGUUAAGG [RNA19]
functional effect [1]: less active
functional effect (FUS (Homo sapiens); strong inhibitor and disaggregator in turbidity assay, pellet reduced about 50% at 30 min, about 10% at 90 min): active
